Among the data in publication PMC8874669 are binding values, retold here.

Chains of the proteins cited; added tags and fusions are not shown. Residues count along the entry.
UniProt Q8IVB5: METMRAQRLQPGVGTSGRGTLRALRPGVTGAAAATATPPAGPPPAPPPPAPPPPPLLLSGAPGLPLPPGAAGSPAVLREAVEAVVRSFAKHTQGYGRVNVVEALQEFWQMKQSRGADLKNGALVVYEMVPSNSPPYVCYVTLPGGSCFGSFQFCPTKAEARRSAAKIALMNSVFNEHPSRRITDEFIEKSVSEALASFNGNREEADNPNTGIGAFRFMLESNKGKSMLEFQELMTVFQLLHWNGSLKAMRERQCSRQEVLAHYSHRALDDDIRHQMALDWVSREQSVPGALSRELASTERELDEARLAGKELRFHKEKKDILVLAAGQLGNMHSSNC
UniProt Q96JQ0, residues 43-3298: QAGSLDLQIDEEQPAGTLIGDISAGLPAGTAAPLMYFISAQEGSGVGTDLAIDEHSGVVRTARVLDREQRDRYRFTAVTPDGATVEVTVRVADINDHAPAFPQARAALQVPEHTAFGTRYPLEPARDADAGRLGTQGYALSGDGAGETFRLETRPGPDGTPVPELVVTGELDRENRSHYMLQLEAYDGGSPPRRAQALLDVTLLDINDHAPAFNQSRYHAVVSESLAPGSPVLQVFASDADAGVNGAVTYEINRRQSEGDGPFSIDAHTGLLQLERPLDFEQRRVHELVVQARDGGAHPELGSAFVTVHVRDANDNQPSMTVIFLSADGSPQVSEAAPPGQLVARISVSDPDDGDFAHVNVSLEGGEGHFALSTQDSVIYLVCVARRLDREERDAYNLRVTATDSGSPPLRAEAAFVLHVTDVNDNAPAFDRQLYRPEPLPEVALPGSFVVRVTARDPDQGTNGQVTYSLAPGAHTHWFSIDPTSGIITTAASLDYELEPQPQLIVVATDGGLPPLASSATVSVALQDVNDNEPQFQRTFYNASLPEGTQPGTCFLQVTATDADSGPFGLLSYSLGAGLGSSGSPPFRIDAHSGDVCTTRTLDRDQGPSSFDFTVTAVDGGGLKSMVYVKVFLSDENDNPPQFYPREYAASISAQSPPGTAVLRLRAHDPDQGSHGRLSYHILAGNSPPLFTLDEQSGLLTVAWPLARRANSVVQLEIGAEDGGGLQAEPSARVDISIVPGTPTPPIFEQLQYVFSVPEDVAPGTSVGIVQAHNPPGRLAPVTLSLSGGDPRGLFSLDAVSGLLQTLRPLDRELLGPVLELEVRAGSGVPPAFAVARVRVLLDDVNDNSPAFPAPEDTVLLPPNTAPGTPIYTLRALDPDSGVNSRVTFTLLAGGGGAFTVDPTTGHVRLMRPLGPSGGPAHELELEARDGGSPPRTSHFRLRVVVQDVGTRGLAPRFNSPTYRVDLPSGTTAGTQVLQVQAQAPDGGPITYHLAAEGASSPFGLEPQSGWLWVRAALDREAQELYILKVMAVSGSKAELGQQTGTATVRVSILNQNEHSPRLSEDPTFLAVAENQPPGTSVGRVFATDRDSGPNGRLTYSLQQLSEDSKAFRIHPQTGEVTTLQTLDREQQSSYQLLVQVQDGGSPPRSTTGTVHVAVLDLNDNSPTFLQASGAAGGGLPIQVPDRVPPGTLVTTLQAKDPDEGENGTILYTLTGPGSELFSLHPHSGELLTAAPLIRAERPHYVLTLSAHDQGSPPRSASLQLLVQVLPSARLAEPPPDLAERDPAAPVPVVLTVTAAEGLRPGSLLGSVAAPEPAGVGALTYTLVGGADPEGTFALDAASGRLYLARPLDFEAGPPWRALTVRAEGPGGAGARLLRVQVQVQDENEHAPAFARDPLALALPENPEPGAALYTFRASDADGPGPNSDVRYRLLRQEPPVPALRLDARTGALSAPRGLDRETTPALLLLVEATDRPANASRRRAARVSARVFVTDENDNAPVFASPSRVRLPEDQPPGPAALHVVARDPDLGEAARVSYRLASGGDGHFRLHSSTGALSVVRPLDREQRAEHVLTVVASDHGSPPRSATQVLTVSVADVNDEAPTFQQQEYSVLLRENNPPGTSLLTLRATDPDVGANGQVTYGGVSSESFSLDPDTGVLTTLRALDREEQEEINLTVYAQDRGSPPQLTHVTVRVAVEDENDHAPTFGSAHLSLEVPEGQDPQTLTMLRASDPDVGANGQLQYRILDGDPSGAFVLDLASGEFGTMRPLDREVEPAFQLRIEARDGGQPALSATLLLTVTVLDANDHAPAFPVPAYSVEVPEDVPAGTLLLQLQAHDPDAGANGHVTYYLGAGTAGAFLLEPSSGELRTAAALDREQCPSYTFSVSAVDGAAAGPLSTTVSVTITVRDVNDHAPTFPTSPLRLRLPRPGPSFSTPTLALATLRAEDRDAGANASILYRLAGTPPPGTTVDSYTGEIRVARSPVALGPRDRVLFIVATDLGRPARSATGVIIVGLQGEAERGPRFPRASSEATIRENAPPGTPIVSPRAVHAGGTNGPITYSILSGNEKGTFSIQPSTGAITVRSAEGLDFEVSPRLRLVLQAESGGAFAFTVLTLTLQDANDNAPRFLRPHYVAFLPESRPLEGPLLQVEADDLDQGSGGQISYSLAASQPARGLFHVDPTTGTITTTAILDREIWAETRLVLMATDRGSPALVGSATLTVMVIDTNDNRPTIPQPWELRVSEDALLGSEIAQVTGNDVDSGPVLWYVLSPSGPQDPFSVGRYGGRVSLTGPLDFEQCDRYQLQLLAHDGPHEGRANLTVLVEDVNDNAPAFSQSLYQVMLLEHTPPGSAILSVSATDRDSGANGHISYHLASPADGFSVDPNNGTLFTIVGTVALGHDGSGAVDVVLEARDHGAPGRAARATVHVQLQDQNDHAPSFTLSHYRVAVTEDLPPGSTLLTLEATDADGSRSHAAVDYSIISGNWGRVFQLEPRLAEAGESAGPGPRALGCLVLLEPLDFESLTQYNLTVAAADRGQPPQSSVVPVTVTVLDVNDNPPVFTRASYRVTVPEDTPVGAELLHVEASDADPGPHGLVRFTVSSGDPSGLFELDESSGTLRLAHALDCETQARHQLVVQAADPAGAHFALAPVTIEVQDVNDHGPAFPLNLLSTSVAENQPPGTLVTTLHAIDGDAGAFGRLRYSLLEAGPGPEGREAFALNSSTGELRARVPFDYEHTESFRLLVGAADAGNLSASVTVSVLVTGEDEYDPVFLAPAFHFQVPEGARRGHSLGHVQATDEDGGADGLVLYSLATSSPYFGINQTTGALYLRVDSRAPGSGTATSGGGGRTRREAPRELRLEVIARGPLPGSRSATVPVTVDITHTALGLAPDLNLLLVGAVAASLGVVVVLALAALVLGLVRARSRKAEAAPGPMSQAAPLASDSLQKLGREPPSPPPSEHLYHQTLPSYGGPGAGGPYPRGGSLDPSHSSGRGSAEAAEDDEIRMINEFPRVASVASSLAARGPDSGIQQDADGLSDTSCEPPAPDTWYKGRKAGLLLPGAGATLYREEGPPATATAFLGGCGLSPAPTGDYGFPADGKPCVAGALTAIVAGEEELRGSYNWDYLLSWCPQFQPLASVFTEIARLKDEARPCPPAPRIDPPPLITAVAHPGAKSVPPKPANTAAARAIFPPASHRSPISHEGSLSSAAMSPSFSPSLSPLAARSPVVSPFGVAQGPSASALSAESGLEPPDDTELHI

For the assay, the target named is LIX1L (Myc-DDK-tagged) (human) (UniProt Q8IVB5). The assay is described as follows: co-IP; HEK293T co-transfected with DCHS1-V5 and LIX1L-FLAG; RIPA lysate; anti-FLAG M2 magnetic beads overnight at 4 °C; washes in TBS; blot with anti-V5 and anti-FLAG.

These are yes or no findings as the source states them, for the method shown. Binding seen in cells or lysates may run through a third protein. Some binding calls cover weakened binding; strength is not graded here.

In the case of “DCHS1 with V5 tag (from UniProt Q96JQ0 43-3298)”, the binding entry was “binds”.
